Assay results from the supplement of paper PMC10849652.
Some of the results follow. Residues, ends and D or L forms follow the SMILES beside them. *: point of attachment. Cbz = O=C(OCc1ccccc1)*

Amino acid sequences for entries named in this document (tags omitted). A change or cut given only in a name is not applied to a line headed by its entry.
UniProt P83111: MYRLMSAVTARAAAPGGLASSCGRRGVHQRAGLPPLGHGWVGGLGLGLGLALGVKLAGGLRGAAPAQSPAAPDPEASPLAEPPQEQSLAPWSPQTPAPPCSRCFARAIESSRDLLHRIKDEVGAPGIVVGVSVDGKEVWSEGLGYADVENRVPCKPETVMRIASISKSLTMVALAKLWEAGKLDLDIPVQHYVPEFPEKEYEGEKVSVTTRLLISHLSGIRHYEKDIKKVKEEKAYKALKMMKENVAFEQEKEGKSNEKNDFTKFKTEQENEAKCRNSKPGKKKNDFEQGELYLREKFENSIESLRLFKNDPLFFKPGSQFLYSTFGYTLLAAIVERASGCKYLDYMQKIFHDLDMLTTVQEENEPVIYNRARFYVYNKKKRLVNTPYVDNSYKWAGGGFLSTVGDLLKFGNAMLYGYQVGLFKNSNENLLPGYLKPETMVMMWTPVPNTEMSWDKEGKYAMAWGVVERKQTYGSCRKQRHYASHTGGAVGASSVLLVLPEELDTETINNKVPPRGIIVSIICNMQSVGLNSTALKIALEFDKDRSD
UniProt Q9UIC8: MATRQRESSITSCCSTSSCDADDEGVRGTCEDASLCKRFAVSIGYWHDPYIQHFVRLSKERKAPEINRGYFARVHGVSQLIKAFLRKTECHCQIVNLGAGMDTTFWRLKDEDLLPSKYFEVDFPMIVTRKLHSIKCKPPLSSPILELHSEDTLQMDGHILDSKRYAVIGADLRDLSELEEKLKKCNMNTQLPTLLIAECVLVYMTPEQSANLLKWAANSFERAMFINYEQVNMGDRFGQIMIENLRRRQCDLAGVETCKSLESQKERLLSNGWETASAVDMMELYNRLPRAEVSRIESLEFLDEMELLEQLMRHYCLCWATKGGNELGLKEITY
UniProt Q6UWP7: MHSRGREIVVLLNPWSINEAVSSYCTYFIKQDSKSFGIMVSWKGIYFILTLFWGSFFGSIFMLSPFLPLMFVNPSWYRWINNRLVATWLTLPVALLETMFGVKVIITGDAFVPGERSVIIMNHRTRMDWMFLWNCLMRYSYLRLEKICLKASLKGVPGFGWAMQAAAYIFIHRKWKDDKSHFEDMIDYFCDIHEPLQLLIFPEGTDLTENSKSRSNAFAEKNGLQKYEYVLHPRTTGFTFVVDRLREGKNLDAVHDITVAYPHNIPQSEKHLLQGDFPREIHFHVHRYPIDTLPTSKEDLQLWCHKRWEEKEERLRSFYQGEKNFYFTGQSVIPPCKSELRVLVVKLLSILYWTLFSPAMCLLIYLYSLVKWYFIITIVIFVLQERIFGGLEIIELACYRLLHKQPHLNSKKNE
UniProt Q9H008: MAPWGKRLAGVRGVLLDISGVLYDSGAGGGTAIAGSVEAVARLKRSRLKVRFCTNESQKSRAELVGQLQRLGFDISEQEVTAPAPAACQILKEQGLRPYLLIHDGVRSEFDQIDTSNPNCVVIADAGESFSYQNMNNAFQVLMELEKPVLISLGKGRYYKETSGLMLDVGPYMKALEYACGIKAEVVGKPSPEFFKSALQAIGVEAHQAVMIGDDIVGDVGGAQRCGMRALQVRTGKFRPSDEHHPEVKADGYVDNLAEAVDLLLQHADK
UniProt P48357: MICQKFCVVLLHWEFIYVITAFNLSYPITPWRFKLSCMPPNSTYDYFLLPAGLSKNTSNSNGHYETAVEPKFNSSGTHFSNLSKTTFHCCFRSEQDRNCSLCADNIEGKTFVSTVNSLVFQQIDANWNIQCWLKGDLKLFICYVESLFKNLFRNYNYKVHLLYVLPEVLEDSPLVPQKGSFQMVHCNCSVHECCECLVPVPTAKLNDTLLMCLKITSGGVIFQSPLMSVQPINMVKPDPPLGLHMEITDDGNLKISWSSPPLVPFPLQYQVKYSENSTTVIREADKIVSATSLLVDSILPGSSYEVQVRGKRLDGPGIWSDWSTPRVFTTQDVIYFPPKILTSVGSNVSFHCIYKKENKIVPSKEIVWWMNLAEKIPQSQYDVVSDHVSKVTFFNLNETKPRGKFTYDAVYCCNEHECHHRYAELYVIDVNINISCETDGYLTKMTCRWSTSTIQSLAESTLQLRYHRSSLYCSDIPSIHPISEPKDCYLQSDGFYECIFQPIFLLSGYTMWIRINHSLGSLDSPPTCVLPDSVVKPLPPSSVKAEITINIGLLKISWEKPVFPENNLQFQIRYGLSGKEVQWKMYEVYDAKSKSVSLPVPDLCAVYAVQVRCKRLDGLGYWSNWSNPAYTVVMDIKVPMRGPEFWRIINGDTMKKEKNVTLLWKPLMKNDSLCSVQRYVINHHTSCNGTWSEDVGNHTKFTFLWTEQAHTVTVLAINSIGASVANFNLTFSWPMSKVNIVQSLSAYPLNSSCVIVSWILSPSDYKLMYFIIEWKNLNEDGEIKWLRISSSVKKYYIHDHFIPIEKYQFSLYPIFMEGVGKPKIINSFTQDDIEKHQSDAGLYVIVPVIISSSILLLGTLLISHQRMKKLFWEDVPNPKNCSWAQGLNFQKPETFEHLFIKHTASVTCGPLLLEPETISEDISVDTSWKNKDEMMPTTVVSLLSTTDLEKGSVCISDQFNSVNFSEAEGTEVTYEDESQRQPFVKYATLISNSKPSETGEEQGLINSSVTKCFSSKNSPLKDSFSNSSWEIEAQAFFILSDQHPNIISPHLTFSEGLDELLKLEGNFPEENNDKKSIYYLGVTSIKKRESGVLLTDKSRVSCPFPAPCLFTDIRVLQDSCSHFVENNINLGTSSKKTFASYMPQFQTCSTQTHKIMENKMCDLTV
UniProt Q8TCA0: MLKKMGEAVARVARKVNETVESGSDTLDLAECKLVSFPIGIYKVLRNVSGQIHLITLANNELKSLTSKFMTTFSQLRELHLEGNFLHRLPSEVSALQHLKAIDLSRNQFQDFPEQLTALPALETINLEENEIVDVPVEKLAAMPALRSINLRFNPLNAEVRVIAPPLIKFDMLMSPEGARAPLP
UniProt Q8NF37: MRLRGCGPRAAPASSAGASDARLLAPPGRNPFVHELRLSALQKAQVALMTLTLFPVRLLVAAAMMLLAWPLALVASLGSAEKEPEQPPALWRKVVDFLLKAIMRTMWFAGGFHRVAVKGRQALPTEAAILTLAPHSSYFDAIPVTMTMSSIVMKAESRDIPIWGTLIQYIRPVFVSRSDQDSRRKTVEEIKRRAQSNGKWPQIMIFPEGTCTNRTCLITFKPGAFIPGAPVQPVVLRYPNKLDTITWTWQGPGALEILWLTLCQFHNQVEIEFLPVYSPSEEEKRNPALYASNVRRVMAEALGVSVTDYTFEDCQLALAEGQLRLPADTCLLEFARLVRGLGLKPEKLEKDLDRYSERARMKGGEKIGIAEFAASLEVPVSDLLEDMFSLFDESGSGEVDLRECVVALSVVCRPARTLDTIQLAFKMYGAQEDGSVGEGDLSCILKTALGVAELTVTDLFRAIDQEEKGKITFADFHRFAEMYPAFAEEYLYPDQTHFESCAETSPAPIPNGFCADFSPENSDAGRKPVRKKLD
UniProt Q16773: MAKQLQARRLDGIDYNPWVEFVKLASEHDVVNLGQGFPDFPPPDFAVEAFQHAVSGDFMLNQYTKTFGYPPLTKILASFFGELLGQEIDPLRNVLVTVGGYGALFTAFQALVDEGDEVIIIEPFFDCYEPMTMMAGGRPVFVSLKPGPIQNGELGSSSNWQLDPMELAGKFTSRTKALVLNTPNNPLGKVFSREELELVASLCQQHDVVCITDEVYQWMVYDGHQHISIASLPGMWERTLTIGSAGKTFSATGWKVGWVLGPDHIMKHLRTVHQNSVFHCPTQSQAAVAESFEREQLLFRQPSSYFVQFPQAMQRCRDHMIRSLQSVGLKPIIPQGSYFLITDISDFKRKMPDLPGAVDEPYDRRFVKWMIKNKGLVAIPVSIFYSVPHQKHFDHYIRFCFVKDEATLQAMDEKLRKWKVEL
UniProt Q9H9A6: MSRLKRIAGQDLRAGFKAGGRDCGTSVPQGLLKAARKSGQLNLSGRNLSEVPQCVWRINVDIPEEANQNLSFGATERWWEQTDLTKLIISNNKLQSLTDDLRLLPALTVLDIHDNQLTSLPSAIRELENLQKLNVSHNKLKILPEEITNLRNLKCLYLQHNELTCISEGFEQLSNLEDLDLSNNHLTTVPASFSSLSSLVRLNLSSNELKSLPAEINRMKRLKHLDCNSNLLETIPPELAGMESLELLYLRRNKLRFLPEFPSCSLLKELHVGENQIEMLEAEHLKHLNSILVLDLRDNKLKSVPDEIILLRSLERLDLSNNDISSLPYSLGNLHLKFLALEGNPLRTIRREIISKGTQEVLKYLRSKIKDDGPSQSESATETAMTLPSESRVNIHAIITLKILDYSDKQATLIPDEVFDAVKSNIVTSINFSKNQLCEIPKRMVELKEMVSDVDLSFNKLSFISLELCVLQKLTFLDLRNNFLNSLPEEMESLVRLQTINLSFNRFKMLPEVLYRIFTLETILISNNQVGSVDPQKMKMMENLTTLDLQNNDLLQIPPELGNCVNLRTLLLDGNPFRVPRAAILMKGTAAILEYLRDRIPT
UniProt Q14847: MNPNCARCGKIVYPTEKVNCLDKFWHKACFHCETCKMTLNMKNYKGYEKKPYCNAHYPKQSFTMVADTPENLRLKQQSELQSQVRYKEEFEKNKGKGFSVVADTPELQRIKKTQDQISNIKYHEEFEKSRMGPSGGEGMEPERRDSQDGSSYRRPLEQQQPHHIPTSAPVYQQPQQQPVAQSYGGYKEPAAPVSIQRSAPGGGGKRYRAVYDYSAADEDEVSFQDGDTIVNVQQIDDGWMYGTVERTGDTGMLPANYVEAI
UniProt O95202: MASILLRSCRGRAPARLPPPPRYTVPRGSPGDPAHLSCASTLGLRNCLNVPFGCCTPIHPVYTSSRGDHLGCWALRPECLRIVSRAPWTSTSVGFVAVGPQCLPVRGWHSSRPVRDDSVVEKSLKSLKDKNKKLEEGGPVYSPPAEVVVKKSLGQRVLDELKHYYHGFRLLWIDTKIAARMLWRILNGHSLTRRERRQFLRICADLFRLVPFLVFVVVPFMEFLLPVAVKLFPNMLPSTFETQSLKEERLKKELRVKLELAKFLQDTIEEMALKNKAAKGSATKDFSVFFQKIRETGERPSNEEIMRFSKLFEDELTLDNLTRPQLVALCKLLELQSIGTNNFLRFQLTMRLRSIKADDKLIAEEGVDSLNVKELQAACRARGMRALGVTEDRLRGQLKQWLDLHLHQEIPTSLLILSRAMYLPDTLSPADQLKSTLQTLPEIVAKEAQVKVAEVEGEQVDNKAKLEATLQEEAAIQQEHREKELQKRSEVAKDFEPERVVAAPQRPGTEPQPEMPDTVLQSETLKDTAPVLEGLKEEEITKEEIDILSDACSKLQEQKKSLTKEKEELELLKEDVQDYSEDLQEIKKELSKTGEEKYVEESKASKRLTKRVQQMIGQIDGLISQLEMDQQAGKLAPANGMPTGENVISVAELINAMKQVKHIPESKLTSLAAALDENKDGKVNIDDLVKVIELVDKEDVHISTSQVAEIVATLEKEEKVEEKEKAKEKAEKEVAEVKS
UniProt P48059, whole entry, looked up: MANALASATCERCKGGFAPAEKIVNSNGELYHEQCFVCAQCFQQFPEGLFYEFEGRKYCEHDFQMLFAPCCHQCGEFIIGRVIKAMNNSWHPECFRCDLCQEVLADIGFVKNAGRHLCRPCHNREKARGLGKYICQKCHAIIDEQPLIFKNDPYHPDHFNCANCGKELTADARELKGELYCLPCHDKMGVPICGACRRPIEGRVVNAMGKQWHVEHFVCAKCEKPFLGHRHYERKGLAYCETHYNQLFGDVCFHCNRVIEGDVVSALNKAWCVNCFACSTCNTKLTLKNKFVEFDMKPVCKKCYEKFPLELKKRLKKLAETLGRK
UniProt P07195, whole entry, looked up: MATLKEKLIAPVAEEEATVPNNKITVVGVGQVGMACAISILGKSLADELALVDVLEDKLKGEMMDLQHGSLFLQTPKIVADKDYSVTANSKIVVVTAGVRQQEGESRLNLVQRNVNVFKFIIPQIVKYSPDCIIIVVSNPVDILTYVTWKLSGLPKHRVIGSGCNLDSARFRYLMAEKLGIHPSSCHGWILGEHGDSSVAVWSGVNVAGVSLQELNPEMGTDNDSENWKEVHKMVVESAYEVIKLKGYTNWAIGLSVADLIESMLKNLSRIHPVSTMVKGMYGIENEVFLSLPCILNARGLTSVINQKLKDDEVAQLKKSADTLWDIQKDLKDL
UniProt Q6P1Q0: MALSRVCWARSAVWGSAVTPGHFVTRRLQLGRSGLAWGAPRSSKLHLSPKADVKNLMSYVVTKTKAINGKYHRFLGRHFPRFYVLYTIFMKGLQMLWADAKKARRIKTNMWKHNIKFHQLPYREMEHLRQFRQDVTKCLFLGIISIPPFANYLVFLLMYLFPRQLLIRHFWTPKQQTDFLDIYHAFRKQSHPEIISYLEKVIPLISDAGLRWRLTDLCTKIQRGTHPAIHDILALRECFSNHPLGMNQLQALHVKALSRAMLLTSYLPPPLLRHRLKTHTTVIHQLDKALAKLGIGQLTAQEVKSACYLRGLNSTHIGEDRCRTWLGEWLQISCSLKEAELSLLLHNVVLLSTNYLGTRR

Assays:
Assay in all cases: log2 fold change, soluble protein after heating vs DMSO (PISA); higher = thermal stabilisation; K562 cells, 10 uM, 30 min; active = over 0.2 and 3.5 SD of the protein, either way, in both replicates (recomputed)
erlotinib = compound: C#Cc1cccc(Nc2ncnc3cc(OCCOC)c(OCCOC)cc23)c1 [erlotinib]
Method in brief: (§1)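 For each measurement, 10 μM compound was applied for 30 min to K562 cells at 2×10^6 cells/mL. Aliquots were heated for 3 min across 48°C-58°C, pooled, and extracted in PBS with 0.5% NP-40 at 4°C; the supernatant after 21,000xg for 90 min was soluble protein. This was quantified by TMTpro 16plex LC-MS/MS with channel sums equalised, and thermal stability was reported relative to control samples from duplicates, on a log2 fold-change scale.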

[1] = compound: C/C(=N\NC(=O)C1=CC(=CC=C1)S(=O)(=O)N2CCOCC2)/C3=C(C=CC(=C3)Cl)O
Method in brief: as §1

[2] = compound: C1=CC(=C(C=C1Cl)C2=NC3=NC=CN=C3C(=N2)NC4=CC=NC=C4)F
Method in brief: as §1

[3] = compound: C1=CC(=CC=C1C2=NC3=C(N2)C=C(C=C3)C(=O)N)OC4=CC=C(C=C4)Cl
Method in brief: as §1

[4] = compound: C1=CC2=C(C=CC(=C2)/C=C\3/C(=O)NC(=NCC4=CC=CS4)S3)N=C1
Method in brief: as §1

[5] = compound: C1=CC2=NC=CN=C2C=C1/C=C/3\C(=O)NC(=O)S3
Method in brief: as §1

[6] = compound: C1=CC=C(C=C1)C2=NC(=C(N2)C3=CC=NC=C3)C4=CC(=C(C=C4)Cl)O
Method in brief: as §1

[7] = compound: C1=CC=C2C(=C1)C3=NNC4=CC=CC(=C43)C2=O
Method in brief: as §1

[8] = compound: C1CCN(C1)C(=O)NC2=CC=CC(=C2)NC3=NC=C(C(=N3)NCCC4=CN=CN4)Br
Method in brief: as §1

[9] = compound: C1CN(CCC1(CC2=CC=C(C=C2)Cl)N)C3=NC=NC4=C3C=CN4
Method in brief: as §1

IRAK-1-4 Inhibitor I = compound: C1COCCN1CCN2C3=CC=CC=C3N=C2NC(=O)C4=CC(=CC=C4)[N+](=O)[O-] [IRAK-1-4 Inhibitor I]
Method in brief: as §1

ibrutinib = compound: C=CC(=O)N1CCC[C@@H](n2nc(-c3ccc(Oc4ccccc4)cc3)c3c(N)ncnc32)C1 [ibrutinib]
Method in brief: as §1

[10] = compound: CC(=O)c1cnc2ccc(-c3cc(Cl)c(O)c(Cl)c3)nc2c1N[C@H]1CC[C@H](CN(C)C)CC1
Method in brief: as §1

ralimetinib = compound: CC(C)(C)Cn1c(N)nc2ccc(-c3[nH]c(C(C)(C)C)nc3-c3ccc(F)cc3)nc21 [ralimetinib]
Method in brief: as §1

[11] = compound: CC(C)(O)CC(=O)NCCn1ccc2ncnc(Nc3ccc(Oc4cccc(C(F)(F)F)c4)c(Cl)c3)c21
Method in brief: as §1

[12] = compound: CC(C)C1=C2N=C(C=C(N2N=C1)NCC3=CC=CC=C3)NCCCCCCN
Method in brief: as §1

[13] = compound: CC(C)C[C@@H](C=O)NC(=O)[C@H](CC(C)C)NC(=O)[C@H](CC(C)C)NC(=O)OCc1ccccc1
Method in brief: as §1

pinometostat = compound: CC(C)N(C[C@H]1O[C@@H](n2cnc3c(N)ncnc32)[C@H](O)[C@@H]1O)[C@H]1C[C@@H](CCc2nc3cc(C(C)(C)C)ccc3[nH]2)C1 [pinometostat]
Method in brief: as §1

[14] = compound: CC1=C(C(CC(=O)N1)C2=CC=C(C=C2)C(F)(F)F)C(=O)NC3=C(C=C4C(=C3)C=NN4)F
Method in brief: as §1

[15] = compound: CC1=C(C2=C(C=C1)C(=O)C3=CC=CC=C3N2CCCN)C
Method in brief: as §1

Measured: log2 fold change

LACTB (UniProt P83111)
inactive: erlotinib -0.022 | [1] -0.05 | [2] -0.08 | [3] 0.076 | [4] -0.055 | [5] 0.017 | [6] 0.048 | [7] 0.071 | [8] 0.074 | [9] -0.041 | IRAK-1-4 Inhibitor I -0.002 | ibrutinib 0.06 | [10] 0.03 | ralimetinib 0.078 | [11] 0.022 | [12] -0.139 | [13] 0.139 | pinometostat 0.187 | [14] 0.043 | [15] -0.041

LCMT1 (UniProt Q9UIC8)
inactive: erlotinib 0.041 | [1] 0.084 | [2] 0.008 | [3] 0.013 | [4] 0.044 | [5] 0.014 | [6] 0.056 | [7] 0.021 | [8] 0.02 | [9] -0.008 | IRAK-1-4 Inhibitor I 0.048 | ibrutinib -0.044 | [10] -0.004 | ralimetinib 0.011 | [11] 0 | [12] -0.041 | [13] -0.063 | pinometostat -0.003 | [14] -0.013 | [15] 0.204

LCLAT1 (UniProt Q6UWP7)
inactive: erlotinib 0.026 | [1] -0.05 | [2] 0.093 | [3] -0.037 | [4] 0.013 | [5] 0.019 | [6] -0.005 | [7] -0.04 | [8] -0.012 | [9] 0.072 | IRAK-1-4 Inhibitor I 0.016 | ibrutinib -0.059 | [10] -0.032 | ralimetinib -0.013 | [11] -0.063 | [12] 0.148 | [13] -0.004 | pinometostat -0.031 | [14] 0.012 | [15] 0.011

LHPP (UniProt Q9H008)
inactive: erlotinib -0.067 | [1] 0.109 | [2] 0.129 | [3] -0.018 | [4] -0.002 | [5] -0.136 | [6] 0.047 | [7] -0.037 | [8] -0.03 | [9] -0.018 | IRAK-1-4 Inhibitor I 0.023 | ibrutinib -0.008 | [10] 0.036 | ralimetinib -0.076 | [11] -0.02 | [12] 0.08 | [13] -0.038 | pinometostat 0.023 | [14] 0.052 | [15] -0.027

LEPR (UniProt P48357)
inactive: erlotinib -0.07 | [1] 0.005 | [2] -0.027 | [3] 0.006 | [4] -0.053 | [5] 0.005 | [6] 0.026 | [7] -0.015 | [8] -0.024 | [9] 0.069 | IRAK-1-4 Inhibitor I 0.025 | ibrutinib 0.013 | [10] -0.061 | ralimetinib 0.019 | [11] 0.043 | [12] 0.042 | [13] 0.038 | pinometostat 0.012 | [14] -0.008 | [15] -0.074

LRRC20 (UniProt Q8TCA0)
inactive: erlotinib 0.036 | [1] 0.03 | [2] 0.255 | [3] -0.014 | [4] 0.139 | [5] 0.013 | [6] 0.049 | [7] 0.016 | [8] -0.098 | [9] 0.193 | IRAK-1-4 Inhibitor I -0.013 | ibrutinib -0.008 | [10] -0.047 | ralimetinib -0.035 | [11] -0.103 | [12] 0.023 | [13] -0.018 | pinometostat -0.016 | [14] 0.007 | [15] 0.18

LPCAT1 (UniProt Q8NF37)
inactive: erlotinib 0.062 | [1] 0.044 | [2] 0.075 | [3] 0.014 | [4] 0.011 | [5] 0.065 | [6] 0.05 | [7] -0.006 | [8] -0.08 | [9] 0.101 | IRAK-1-4 Inhibitor I 0.025 | ibrutinib -0.014 | [10] 0.003 | ralimetinib -0.04 | [11] -0.06 | [12] -0.055 | [13] 0 | pinometostat -0.008 | [14] -0.071 | [15] 0.013

KYAT1 (UniProt Q16773)
inactive: erlotinib 0.032 | [1] 0.014 | [2] 0.031 | [3] 0.012 | [4] 0.065 | [5] 0.012 | [6] -0.047 | [7] 0.003 | [8] 0.012 | [9] 0.027 | IRAK-1-4 Inhibitor I 0.02 | ibrutinib 0.037 | [10] -0.046 | ralimetinib -0.055 | [11] -0.025 | [12] 0.071 | [13] 0.002 | pinometostat -0.056 | [14] 0.025 | [15] 0

LRRC40 (UniProt Q9H9A6)
inactive: erlotinib 0.124 | [1] 0.131 | [2] -0.03 | [3] 0.023 | [4] 0.055 | [5] 0.006 | [6] 0.046 | [7] 0.028 | [8] -0.064 | [9] -0.103 | IRAK-1-4 Inhibitor I -0.017 | ibrutinib -0.023 | [10] -0.064 | ralimetinib 0.038 | [11] -0.109 | [12] -0.222 | [13] 0.013 | pinometostat 0.102 | [14] 0.003 | [15] 0.07

LASP1 (UniProt Q14847)
inactive: erlotinib 0.016 | [1] -0.013 | [2] 0.058 | [3] 0.008 | [4] -0.009 | [5] 0 | [6] -0.035 | [7] 0 | [8] -0.001 | [9] 0.068 | IRAK-1-4 Inhibitor I 0.039 | ibrutinib 0 | [10] 0.005 | ralimetinib -0.068 | [11] 0.005 | [12] 0.072 | [13] -0.04 | pinometostat -0.062 | [14] 0.024 | [15] -0.026

Retrieved one by one from the list above (2):
KYAT1 (UniProt Q16773)
inactive: erlotinib 0.032 | [1] 0.014 | [2] 0.031 | [3] 0.012 | [4] 0.065 | [5] 0.012 | [6] -0.047 | [7] 0.003 | [8] 0.012 | [9] 0.027 | IRAK-1-4 Inhibitor I 0.02 | ibrutinib 0.037 | [10] -0.046 | ralimetinib -0.055 | [11] -0.025 | [12] 0.071 | [13] 0.002 | pinometostat -0.056 | [14] 0.025 | [15] 0

LRRC20 (UniProt Q8TCA0)
inactive: erlotinib 0.036 | [1] 0.03 | [2] 0.255 | [3] -0.014 | [4] 0.139 | [5] 0.013 | [6] 0.049 | [7] 0.016 | [8] -0.098 | [9] 0.193 | IRAK-1-4 Inhibitor I -0.013 | ibrutinib -0.008 | [10] -0.047 | ralimetinib -0.035 | [11] -0.103 | [12] 0.023 | [13] -0.018 | pinometostat -0.016 | [14] 0.007 | [15] 0.18

(further entries)

LETM1 (UniProt O95202)
inactive: erlotinib 0.001 | [1] 0.05 | [2] 0.069 | [3] 0.009 | [4] -0.008 | [5] 0.02 | [6] 0.046 | [7] 0.022 | [8] -0.02 | [9] 0.009 | IRAK-1-4 Inhibitor I 0.019 | ibrutinib -0.02 | [10] 0.029 | ralimetinib -0.009 | [11] -0.044 | [12] -0.209 | [13] -0.067 | pinometostat -0.035 | [14] 0.019 | [15] 0.01

LIMS1 isoform 3 (UniProt P48059)
inactive: erlotinib 0.001 | [1] 0.012 | [2] 0.047 | [3] 0.015 | [4] 0.025 | [5] 0.036 | [6] 0.038 | [7] -0.053 | [8] -0.023 | [9] 0.056 | IRAK-1-4 Inhibitor I -0.008 | ibrutinib 0.018 | [10] -0.001 | ralimetinib -0.019 | [11] -0.01 | [12] 0.075 | [13] -0.045 | pinometostat -0.063 | [14] 0.027 | [15] -0.011

LDHB (UniProt P07195)
inactive: erlotinib 0.001 | [1] 0.002 | [2] 0.001 | [3] 0.017 | [4] -0.012 | [5] 0.003 | [6] -0.061 | [7] -0.004 | [8] -0.002 | [9] 0.037 | IRAK-1-4 Inhibitor I 0.075 | ibrutinib 0.025 | [10] 0.013 | ralimetinib -0.025 | [11] 0.052 | [12] 0.102 | [13] 0.031 | pinometostat -0.037 | [14] 0.011 | [15] 0.006

LETMD1 isoform 7 (UniProt Q6P1Q0)
inactive: erlotinib 0.011 | [1] 0.096 | [2] 0 | [3] 0.037 | [4] 0.103 | [5] 0.016 | [6] 0.051 | [7] -0.112 | [8] -0.127 | [9] -0.092 | IRAK-1-4 Inhibitor I -0.095 | ibrutinib 0.044 | [10] -0.109 | ralimetinib -0.052 | [11] -0.019 | [12] -0.015 | [13] 0.024 | pinometostat 0.089 | [14] -0.035 | [15] 0.207

LGALS1 (UniProt P09382)
inactive: erlotinib -0.001 | [1] -0.008 | [2] 0.063 | [3] -0.012 | [4] 0.049 | [5] 0.035 | [6] 0.031 | [7] -0.021 | [8] -0.035 | [9] 0.03 | IRAK-1-4 Inhibitor I 0.022 | ibrutinib -0.038 | [10] 0.035 | ralimetinib -0.036 | [11] -0.039 | [12] 0.023 | [13] 0.001 | pinometostat -0.036 | [14] -0.015 | [15] 0.08

LRRC57 (UniProt Q8N9N7)
inactive: erlotinib 0.01 | [1] 0.021 | [2] 0.032 | [3] 0.005 | [4] 0.044 | [5] 0.017 | [6] -0.026 | [7] -0.007 | [8] -0.019 | [9] 0.04 | IRAK-1-4 Inhibitor I 0.037 | ibrutinib -0.005 | [10] -0.024 | ralimetinib -0.058 | [11] 0 | [12] 0.018 | [13] -0.013 | pinometostat -0.017 | [14] -0.02 | [15] 0.018
